Results are given in words; binding and its absence hold for the method and conditions named. Each block holds one substance with its values, some of them ahead of it.
What was measured:
Assay in all cases: condition: only in the absence of nucleotide (0.2 μM monomer); cross-linking; glutaraldehyde crosslinking in the absence of nucleotide, 0.2 μM monomer; 40 mM HEPES-KOH (pH 7.4), 150 mM KCl, 20 mM MgCl2, 1 mM DTT; both purified
[1] = molecular target: Hsp104^R419M (S. cerevisiae) (UniProt P31539)
[2] = molecular target: Hsp104^R334M (S. cerevisiae) (UniProt P31539)
[3] = molecular target: Hsp104^R444M (S. cerevisiae) (UniProt P31539)
[4] = molecular target: Hsp104^R495M (S. cerevisiae) (UniProt P31539)
[5] = molecular target: Hsp104 (wild-type) (S. cerevisiae) (UniProt P31539)

Sequences of proteins named here, by UniProt entry; tags and fusion partners are left off. A change or cut given only in a name is not applied to a line headed by its entry.
UniProt P31539: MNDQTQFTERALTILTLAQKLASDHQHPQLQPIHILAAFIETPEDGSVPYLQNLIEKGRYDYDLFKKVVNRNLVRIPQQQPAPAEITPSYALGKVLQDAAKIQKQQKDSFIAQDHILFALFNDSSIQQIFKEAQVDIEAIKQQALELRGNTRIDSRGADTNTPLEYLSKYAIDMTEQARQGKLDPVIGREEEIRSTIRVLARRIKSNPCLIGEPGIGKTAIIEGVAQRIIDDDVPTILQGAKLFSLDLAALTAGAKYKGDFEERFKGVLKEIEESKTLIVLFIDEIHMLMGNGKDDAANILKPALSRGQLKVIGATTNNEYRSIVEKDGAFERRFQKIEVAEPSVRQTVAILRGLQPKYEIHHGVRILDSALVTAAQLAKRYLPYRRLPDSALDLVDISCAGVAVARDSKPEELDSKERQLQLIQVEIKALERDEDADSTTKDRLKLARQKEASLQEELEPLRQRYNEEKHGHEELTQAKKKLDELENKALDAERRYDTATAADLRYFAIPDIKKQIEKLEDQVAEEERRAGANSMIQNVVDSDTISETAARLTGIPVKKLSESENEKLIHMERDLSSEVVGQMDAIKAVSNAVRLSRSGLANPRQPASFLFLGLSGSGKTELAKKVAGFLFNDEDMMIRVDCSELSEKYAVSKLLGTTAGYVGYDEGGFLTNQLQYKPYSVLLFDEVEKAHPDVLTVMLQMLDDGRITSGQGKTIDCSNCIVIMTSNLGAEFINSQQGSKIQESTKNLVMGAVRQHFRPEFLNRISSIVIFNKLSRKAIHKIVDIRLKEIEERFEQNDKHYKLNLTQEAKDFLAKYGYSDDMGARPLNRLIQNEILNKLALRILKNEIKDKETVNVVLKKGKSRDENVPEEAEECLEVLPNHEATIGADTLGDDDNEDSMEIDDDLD

Substance: Hsp104^R334M (from UniProt P31539 1-908)
binding [2]: no binding

Substance: Hsp104^R495M (from UniProt P31539 1-908)
binding [4]: no binding

Substance: Hsp104 (wild-type) (from UniProt P31539 1-908)
binding [5]: no binding

Next, values leading:

binding [1]: no binding
Substance: Hsp104^R419M (from UniProt P31539 1-908)

binding [3]: no binding
Substance: Hsp104^R444M (from UniProt P31539 1-908)
